Data on 21 compounds can be found in PubChem BioAssay (NCATS).

A short description of the experiment: qHTS for identification of novel therapeutic agents for treatment of microphthalmiaassociated transcription factor (MiT) renal cell carcinoma (RCC) (AID 1963991). The following applies: CellTiter-Glo, 48 h; for z-score: stronger effect = lower value. The method in brief:
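Three TFE3-fusion RCC cell lines (UOK109, UOK124, UOK145), 500 cells/well, were exposed to the 1912-compound MIPE 4.0 library for 48 hours at 37 C. Viability was read by CellTiter-Glo luminescence, normalised to DMSO (100%) and empty wells (0%), with 11-concentration curve fits.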

Setting [1] is: TFE3-RCC UOK109 viability, measured here: UOK109 Z-AUC.
Setting [2] is: TFE3-RCC viability, measured here: UOK124 Z-AUC.
Where [3] appears, read: TFE3-RCC viability, measured here: UOK145 Z-AUC.
[4] abbreviates: TFE3-RCC viability, measured here: UOK145 cell viability.
[5] abbreviates: TFE3-RCC viability, measured here: UOK124 cell viability.

Some of the results follow. These are further read-outs of the screen, such as a control signal, another cell line or another target. No call is given for them. Most of these compounds were active or inconclusive in the main read-out, so they are no random draw. The note in brackets gives the kind of curve behind each potency; many fits are weak.

In the case of `CC1(C)CCC(C)(C)c2cc(NC(=O)c3ccc(C(=O)O)cc3)ccc21`, the z-score was -0.0509 under setting [1], 0.803 under setting [2] and 0.0517 under setting [3]. The AC50 (as a rule, the concentration at which the activity in the assay is half-maximal) under setting [4] was 23.5 µM [falling, partial curve, poor fit].
As for `CN1CC(=O)N2C(Cc3c([nH]c4ccccc34)[C@H]2c2ccc3c(c2)OCO3)C1=O` (some centres undefined), the z-score amounted to 0.939 under setting [1], 0.151 under setting [2] and 0.393 under setting [3]. The AC50 under setting [5] is 29.6 µM [falling, single point].
Regarding `Cc1nc(C(=O)NCC(=O)O)c(O)c2ccc(Oc3ccccc3)cc12`, the z-score runs as follows: under setting [1], 0.528; under setting [2], 0.524; under setting [3], 0.485. For the same compound, the AC50 under setting [4] was 1.05 µM [falling, partial curve, poor fit].
For `CN1C(C(=O)Nc2ccccn2)=C(O)c2sc(Cl)cc2S1(=O)=O`, the z-score stood at 0.747 under setting [1], 0.348 under setting [2] and 0.163 under setting [3]. Moreover, the AC50 under setting [4] was 10.5 µM [falling, partial curve].
Consider `CC(O)=C(C#N)C(=O)Nc1ccc(C(F)(F)F)cc1`, for which the z-score is 0.786 under setting [1], -2.65 under setting [2] and 0.412 under setting [3]. Also, the AC50 under setting [4] was 16.6 µM [falling, partial curve].
For the compound `Oc1cc(O)cc(C=Cc2ccc(O)c(O)c2)c1`, the z-score by setting is: under setting [1], 0.568; under setting [2], 1.2; under setting [3], -0.0976. Further, the AC50 under setting [5] is 18.7 µM [falling, single point].
As for `Cc1ccc(Nc2cc(-c3cccc(N4C(=O)c5ccccc5C4=O)c3)ncn2)cc1NS(C)(=O)=O`, the z-score under setting [1] was -0.325, the z-score under setting [2] is 0.435 and the z-score under setting [3] was -0.023. Besides, under setting [4], the AC50 is 33.2 µM [falling, partial curve, poor fit].
As to `O=C(O)[C@H]1O[C@H](Oc2cc3oc(-c4ccccc4)cc(=O)c3c(O)c2O)[C@H](O)[C@@H](O)[C@H]1O`, the z-score runs as follows: under setting [1], 0.634; under setting [2], 0.939; under setting [3], 0.883. Besides, the AC50 under setting [5] is 0.0166 µM [rising, full curve].
As for `c1cc(-c2sc(-c3ccncc3)c(-c3ccncc3)c2-c2ccncc2)ccn1`, the z-score is -0.0428 under setting [1], 0.517 under setting [2] and 0.268 under setting [3]. The AC50 under setting [4] is 29.6 µM [falling, single point].
Turning to `CC(C)NCC(O)COc1ccc(CCOCC2CC2)cc1` (centres undefined), the z-score was found to be 0.444 under setting [1], 0.0952 under setting [2] and 1.01 under setting [3]. Besides, the AC50 under setting [4] is 0.0296 µM [rising, full curve, poor fit].
As to `CC(C)OC(=O)CCCC=CC[C@@H]1[C@H](C=C[C@@H](O)COc2cccc(C(F)(F)F)c2)[C@H](O)C[C@@H]1O`, the z-score reads like this: under setting [1], 0.804; under setting [2], 0.209; under setting [3], 0.492. Also, the AC50 under setting [5] was 13.2 µM [falling, partial curve].
On to `C[C@@H]1[C@H](C)CC[C@]2(C(=O)O)CC[C@]3(C)C(=CC[C@@H]4[C@@]5(C)CC[C@H](O)C(C)(C)[C@H]5CC[C@]43C)[C@@H]12`, for which the z-score by setting is: under setting [1], -0.243; under setting [2], 0.661; under setting [3], -0.0699. Moreover, the AC50 under setting [5] is 48.1 µM [falling, partial curve, poor fit].
`N#CC(=C(N)Sc1ccc(N)cc1)c1ccccc1C(F)(F)F`: the z-score was -0.733 under setting [1], -0.219 under setting [2] and -0.108 under setting [3]. Further, the AC50 under setting [5] is 6.62 µM [falling, partial curve, poor fit].
Regarding `CC(C(=O)O)c1ccc(-c2ccccc2)c(F)c1` (centres undefined), the z-score runs as follows: under setting [1], 0.688; under setting [2], 0.362; under setting [3], -0.547. Also, the AC50 under setting [4] is 16.6 µM [falling, partial curve].
Turning to `C[C@@H](Cc1cc2c(c(C(N)=O)c1)N(CCCO)CC2)NCCOc1ccccc1OCC(F)(F)F`, the z-score is -0.308 under setting [1], 0.6 under setting [2] and 2.8 under setting [3]. The AC50 under setting [4] was 0.00187 µM [rising, full curve, poor fit].
Consider `NC(=O)Cc1cccc(C(=O)c2ccccc2)c1N`, for which the z-score was determined as 0.75 under setting [1], 0.365 under setting [2] and 0.545 under setting [3]. The AC50 under setting [5] was 18.7 µM [falling, partial curve, poor fit].
With `Cn1cc(C=CC(=O)c2cccc(F)c2)cc1C=CC(=O)NO`, the z-score reads like this: under setting [1], 0.633; under setting [2], -2.59; under setting [3], 0.676. Under setting [4], the AC50 is 26.4 µM [falling, single point].
As to `CN(c1nccc(=O)[nH]1)C1CCN(c2nc3ccccc3n2Cc2ccc(F)cc2)CC1`, the z-score by setting is: under setting [1], 0.251; under setting [2], 0.44; under setting [3], 0.343. For the same compound, the AC50 under setting [4] was 18.7 µM [falling, partial curve, poor fit].
Take `Nc1nc2c(c(=O)[nH]1)N(C=O)[C@H](CNc1ccc(C(=O)N[C@@H](CCC(=O)O)C(=O)O)cc1)CN2`: the z-score reads like this: under setting [1], -4.29; under setting [2], 1.1; under setting [3], -1.44. Besides, under setting [4], the AC50 is 0.209 µM [rising, full curve].
In turn, `Nc1ncn([C@H]2C[C@H](O)[C@@H](CO)O2)c(=O)n1` yielded a z-score under setting [1] of -0.0254, a z-score under setting [2] of 1.35 and a z-score under setting [3] of 0.192. Also, under setting [4], the AC50 is 5.9 µM [falling, partial curve].
Take `COc1ccc(-c2c(-c3ccc(O)cc3O)n[nH]c2C)cc1`: the z-score was 0.386 under setting [1], -0.169 under setting [2] and 0.628 under setting [3]. Further, the AC50 under setting [5] is 48.1 µM [falling, partial curve, poor fit].
